Measurements reported in PMC3062566.
Results are given in words; binding and its absence hold for the method and conditions named. Some results given as binding are weak or reduced against the parent protein; the word gives no strength.

Amino acid sequences for entries named in this document (tags omitted).
UniProt P9WHP5: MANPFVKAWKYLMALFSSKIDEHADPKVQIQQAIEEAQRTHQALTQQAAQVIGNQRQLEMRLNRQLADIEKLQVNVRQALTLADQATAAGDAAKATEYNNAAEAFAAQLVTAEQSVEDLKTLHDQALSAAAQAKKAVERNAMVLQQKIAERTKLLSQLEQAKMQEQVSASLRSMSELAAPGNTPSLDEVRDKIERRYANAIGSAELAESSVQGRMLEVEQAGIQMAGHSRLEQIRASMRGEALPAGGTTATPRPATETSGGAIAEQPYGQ

Molecular target: Rv2744c as bacterial two-hybrid fusion (pTZ1185: pKT25 containing Rv2744c; pTZ1182: pUT18 containing Rv2744c) (Mycobacterium tuberculosis) (UniProt P9WHP5)
Assay: two-hybrid

Question: Which binding does the source give for “Rv2744c as bacterial two-hybrid fusion (pTZ1185: pKT25 containing Rv2744c; pTZ1182: pUT18 containing Rv2744c) (from UniProt P9WHP5 1-270)” here?
Answer: binds
